From PMC12781876
These are yes or no findings as the source states them, for the method shown. In cells and extracts the contact can be indirect. For part of these data: Binding calls can cover weak binding; strength is not graded here. For part of these data: Sequences can lack the tags named with a protein. Each block holds one molecule with its values, some of them ahead of it.

Columns and labels:
[1] = biological target: T1, GST–KpRtg1 (expressed in E. coli) (K. phaffii) (UniProt F2QMN0); assay: pull-down; GST-Rtg1 present in E. coli cell lysates immobilized onto glutathione Sepharose-4B beads; E. coli cell lysates containing MBP-Rtg3/RtgX added; after washing, beads analysed by SDS-PAGE and Coomassie Brilliant Blue staining; only the target purified
T1 sequence: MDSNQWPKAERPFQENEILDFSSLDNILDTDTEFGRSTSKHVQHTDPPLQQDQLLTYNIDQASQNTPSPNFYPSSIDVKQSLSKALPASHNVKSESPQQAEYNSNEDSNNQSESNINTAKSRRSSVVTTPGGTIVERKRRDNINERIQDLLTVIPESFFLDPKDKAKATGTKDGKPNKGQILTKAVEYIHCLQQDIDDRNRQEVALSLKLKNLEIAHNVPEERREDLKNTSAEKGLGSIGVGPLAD

[2] = biological target: T2, KpRtg1–GST (expressed in K. phaffii) (K. phaffii) (UniProt F2QMN0); assay: pull-down; KpRtg1-GST from K. phaffii lysate bound to GST beads and washed (1x PBS, 0.2% Triton X), used as bait; incubated with lysate containing KpRtgX-GFP from K. phaffii cells cultured in YNBM; 4°C, 2 h; western blot; only the target purified
T2 sequence: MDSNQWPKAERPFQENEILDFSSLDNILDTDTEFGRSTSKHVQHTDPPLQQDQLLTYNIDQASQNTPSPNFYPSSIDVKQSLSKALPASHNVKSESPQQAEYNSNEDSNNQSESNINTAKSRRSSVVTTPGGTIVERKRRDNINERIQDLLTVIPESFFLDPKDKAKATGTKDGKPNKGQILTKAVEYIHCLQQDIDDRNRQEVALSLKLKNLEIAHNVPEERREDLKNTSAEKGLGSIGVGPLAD

[3] = biological target: KpRtgX–GFP (expressed in K. phaffii) (K. phaffii); assay: pull-down; GST-tagged anti-GFP nanobody on glutathione beads as bait; 2 mg total lysate of K. phaffii cells cultured in YNB Glu containing both KpRtgX-GFP and KpRtg1-mCherry; 4°C, 2 h; washed with 1x PBS, 0.2% Triton X; western blot

binding [1]: no binding
Molecule: MBP–KpRtgX (expressed in E. coli) (K. phaffii)

binding [2]: binds
Molecule: KpRtgX–GFP (expressed in K. phaffii)

binding [3]: binds
B1: KpRtg1–mCherry (expressed in K. phaffii) (protein, UniProt F2QMN0 1-246)
chain: MDSNQWPKAERPFQENEILDFSSLDNILDTDTEFGRSTSKHVQHTDPPLQQDQLLTYNIDQASQNTPSPNFYPSSIDVKQSLSKALPASHNVKSESPQQAEYNSNEDSNNQSESNINTAKSRRSSVVTTPGGTIVERKRRDNINERIQDLLTVIPESFFLDPKDKAKATGTKDGKPNKGQILTKAVEYIHCLQQDIDDRNRQEVALSLKLKNLEIAHNVPEERREDLKNTSAEKGLGSIGVGPLAD
